Entries after “also recorded” stand apart in the source; their conditions may differ. At least one structure is not confirmed: it was looked up by name or label, or the drawing left a doubt.
How the values were obtained:
[1] = system: adenylate cyclase (AC) isoforms; conditions: cited from earlier work
[2] = system: PC2; assay: PC2 protein levels in isolated islets from WT mice; format: cell-based, mouse; conditions: graded concentrations of Forskolin
[3] = system: PCSK1 transcript; assay: PCSK1 transcript levels in iPSC-derived neurons; format: cell-based, human
Protocol: FIGS. 6A-F are graphs showing that application of phosphodiesterase inhibitors to iPSC-derived neurons increases PCSK1 transcript levels and prohormone processing. […] FIGS. 6B-C: Roflumilast increases PCSK1 transcript levels in iPSC-derived neurons at Day 40 of differentiation (1043D3 line) at […] concentration. […] FIG. 6F: MK0952 applied at 10 μM in combination with 1 μM Forskolin increases PCSK1 transcript levels ˜2-fold in iPSC-derived neurons (1043D3 line).
Forskolin was applied to various cellular models and the results illustrate that it robustly and reliably increases PCSK1 transcript levels, PC1 protein levels, and functionally increases prohormone processing. PCSK1/Pcsk1 transcript levels increased between 2-3 fold in iPSC-derived neurons and primary mouse neurons exposed to 10 μM Forskolin (FIGS. 5A, C, D).
Cyclic AMP concentrations increased about 8.5-fold in iPSC-derived hypothalamic ARC neurons exposed to 10 μM Forskolin, supporting the inference that application of Forskolin increases PCSK1 transcript levels by raising cellular cAMP levels which in turn activate PCSK1's cAMP-response element promoter. FIG. 5A is a graph showing primary forebrain neurons were isolated from gestational day 19.5 (E19.5) embryos of wild type mice and cultured for 72 hours. Subsequently, cells were exposed to either 10 μM Forskolin or its vehicle, dimethyl sulfoxide (DMSO) for 20 hours. Pcsk1 transcript increased ˜2.5-fold in primary neurons exposed to Forskolin. FIG. 5B is a graph showing unaffected control hypothalamic arcuate-like (ARC) neurons (Hes Nkx2-1 hESC line) at day 37 (D37) of differentiation were treated with 10 μM Forskolin or vehicle for thirty minutes. Cyclic adenosine monophosphate (cAMP) levels were increased about 8.5-fold in cells exposed to Forskolin. […] Four hours of exposure yielded the maximal increase in upregulation, about 2.5-fold, of the time points tested.
However, the effect size of PDE inhibition on PCSK1 transcript levels is less than that induced by AC agonism with forskolin. […] Again, increased PCSK1 transcription due to combination treatment with Forskolin and Roflumilast also increases prohormone processing of POMC to ACTH (FIG. 6E).

[4] = system: hypothalamic Pcsk1; assay: Hypothalamic Pcsk1 transcript levels after single administration in wild type mice; format: in vivo, mouse; conditions: Forskolin 25 mg/kg intraperitoneally, one time
[5] = system: PC1; assay: PC1 protein levels in isolated islets from WT mice; format: cell-based, mouse; conditions: isolated islets from adult WT mice, 25 and 50 μM Forskolin
[6] = system: POMC processing; assay: POMC prohormone processing in iPSC-derived hypothalamic ARC neurons; format: cell-based, human; conditions: unaffected control (1023A) hypothalamic ARC neurons, day 30, graded concentration of Forskolin
[7] = system: PCSK1 transcript; assay: PCSK1 transcript levels in iPSC-derived β-cells; format: cell-based, human; conditions: unaffected control iPSC-derived β-cells treated with Forskolin
[8] = system: INS; assay: INS transcript levels in iPSC-derived β-cells; format: cell-based, human; conditions: unaffected control iPSC-derived β-cells treated with Forskolin
[9] = system: SNORD116; assay: SNORD116 transcript levels in iPSC-derived β-cells; format: cell-based, human; conditions: unaffected control iPSC-derived β-cells treated with Forskolin
[10] = Ratio of circulating proinsulin:insulin in wild type mice; format: in vivo, mouse; conditions: single administration, ~4 hour fasted wild type mice
Protocol: The first in vivo study with MK0952 administered by oral gavage while forskolin was administered intraperitoneally one time to ˜4 hour fasted wild type mice was completed. […] This difference likely reflects greater CNS penetrance of the MK0952, not the general relevance of a cyclase activator to therapy of PWS. No change in the ratio of circulating proinsulin:insulin was detected following administration MK0952 or Forskolin. Because the processing of proinsulin to insulin is already quite efficient in WT animals, it is in hindsight unlikely that it would further increase at fasting. However, these ‘baseline’ data are still valuable for assessing proinsulin to insulin processing under the setting of an intraperitoneal glucose tolerance test at […] glucose in both WT and Snord116^p−/m+ mice. Additionally, samples were collected for measurement of circulating cAMP levels, cortical proBDNF/BDNF, cerebellar Pcsk1, gastric Pcsk1, and gastric proghrelin/ghrelin, and finally pulmonary Pcsk1 transcript and cAMP levels.

[11] = system: POMC transcript; assay: POMC transcript levels in hypothalamic iPSC-derived neurons; format: cell-based, human; conditions: unaffected control hypothalamic iPSC-derived neurons treated with Forskolin

C=C[C@@]1(C)CC(=O)[C@]2(O)[C@@]3(C)[C@@H](O)CCC(C)(C)[C@@H]3[C@H](O)[C@H](OC(C)=O)[C@@]2(C)O1 [Forskolin]
AC isoforms activated [1]: All except AC9 | PC2 protein levels [2]: unaffected; also recorded: No change | PCSK1 upregulation after 1 hour of exposure ([3]; iPSC-derived neurons (line 1043D3), 10 μM Forskolin, 1 hour): not significantly upregulated | PCSK1 upregulation after 4 hours of exposure ([3]; iPSC-derived neurons (line 1043D3), 10 μM Forskolin, 4 hours): significantly upregulated | PCSK1 upregulation after 18 hours of exposure ([3]; iPSC-derived neurons (line 1043D3), 10 μM Forskolin, 18 hours): significantly upregulated | PCSK1 transcript levels, response to Forskolin ([3]; unaffected control hypothalamic iPSC-derived neurons (line 1023A), day 30, graded concentrations): dose-dependent response; also recorded: may increase transcript levels of PCSK1 in a dose-dependent manner; also recorded: increased | hypothalamic Pcsk1 transcript levels [4]: did not result in increased; also recorded: did not result in an upregulation | PC1 protein levels [5]: upregulation | POMC processing to α-melanocyte stimulating hormone (αMSH) [6]: dose-dependent increase; also recorded: increased | POMC processing to β-endorphin (βEP) [6]: dose-dependent increase; also recorded: increased | PCSK1 transcript levels [7]: increased | INS transcript levels [8]: minimally affected | SNORD116 transcript levels [9]: minimally affected | ratio of circulating proinsulin:insulin [10]: No change | POMC transcript levels [11]: may not be affected
